The list shows a part of the results.
Key:
Assay in all cases: log2 fold change, soluble protein after heating vs DMSO (PISA); higher = thermal stabilisation; K562 lysate, 10 uM; active = over 0.2 and 3.5 SD of the protein, either way, in both replicates (recomputed)
vemurafenib = compound: CCCS(=O)(=O)Nc1ccc(F)c(C(=O)c2c[nH]c3ncc(-c4ccc(Cl)cc4)cc23)c1F [vemurafenib]
Summary of the method: (§1)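 A 30 min treatment with 10 μM compound was applied to crude K562 extract at 1 mg/mL protein in PBS pH 7.4 with 1 mM MgCl2. Heating for 3 min spanned 48°C-58°C, after which aliquots were pooled, adjusted to 0.5% NP-40 at 4°C and spun at 21,000xg for 90 min. TMTpro 16plex LC-MS/MS of the supernatant, with channel sums equalised, gave values recorded as log-two fold change in thermal stability against solvent controls, from duplicates.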

Amino acid sequences for entries named in this document (tags omitted). A change or cut given only in a name is not applied to a line headed by its entry.
UniProt Q969Z0: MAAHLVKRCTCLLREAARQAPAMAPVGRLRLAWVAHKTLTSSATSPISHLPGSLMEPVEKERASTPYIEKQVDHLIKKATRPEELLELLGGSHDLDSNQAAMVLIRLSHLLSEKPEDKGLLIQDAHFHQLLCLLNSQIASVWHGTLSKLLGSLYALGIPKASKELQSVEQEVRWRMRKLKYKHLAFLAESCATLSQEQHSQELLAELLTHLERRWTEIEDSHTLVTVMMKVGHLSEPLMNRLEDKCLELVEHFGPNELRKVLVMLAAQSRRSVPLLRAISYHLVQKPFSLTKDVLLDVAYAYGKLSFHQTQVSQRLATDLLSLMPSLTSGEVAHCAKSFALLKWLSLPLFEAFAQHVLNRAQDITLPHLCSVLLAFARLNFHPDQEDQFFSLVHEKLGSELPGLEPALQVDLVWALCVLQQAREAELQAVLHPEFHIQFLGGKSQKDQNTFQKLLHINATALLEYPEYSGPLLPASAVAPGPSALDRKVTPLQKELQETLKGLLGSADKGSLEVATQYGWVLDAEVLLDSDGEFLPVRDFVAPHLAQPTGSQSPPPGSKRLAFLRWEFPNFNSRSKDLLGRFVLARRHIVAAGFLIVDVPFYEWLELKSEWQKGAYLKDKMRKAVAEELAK
UniProt P37837: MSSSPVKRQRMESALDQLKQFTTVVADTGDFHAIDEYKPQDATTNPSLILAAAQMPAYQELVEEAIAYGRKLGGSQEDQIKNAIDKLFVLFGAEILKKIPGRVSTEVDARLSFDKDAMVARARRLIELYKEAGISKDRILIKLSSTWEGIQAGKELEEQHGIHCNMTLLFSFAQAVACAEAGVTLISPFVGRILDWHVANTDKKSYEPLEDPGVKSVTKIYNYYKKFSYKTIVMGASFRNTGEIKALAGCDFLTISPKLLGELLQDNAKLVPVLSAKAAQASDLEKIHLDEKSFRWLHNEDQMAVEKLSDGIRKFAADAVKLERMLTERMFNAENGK
UniProt Q8TC07: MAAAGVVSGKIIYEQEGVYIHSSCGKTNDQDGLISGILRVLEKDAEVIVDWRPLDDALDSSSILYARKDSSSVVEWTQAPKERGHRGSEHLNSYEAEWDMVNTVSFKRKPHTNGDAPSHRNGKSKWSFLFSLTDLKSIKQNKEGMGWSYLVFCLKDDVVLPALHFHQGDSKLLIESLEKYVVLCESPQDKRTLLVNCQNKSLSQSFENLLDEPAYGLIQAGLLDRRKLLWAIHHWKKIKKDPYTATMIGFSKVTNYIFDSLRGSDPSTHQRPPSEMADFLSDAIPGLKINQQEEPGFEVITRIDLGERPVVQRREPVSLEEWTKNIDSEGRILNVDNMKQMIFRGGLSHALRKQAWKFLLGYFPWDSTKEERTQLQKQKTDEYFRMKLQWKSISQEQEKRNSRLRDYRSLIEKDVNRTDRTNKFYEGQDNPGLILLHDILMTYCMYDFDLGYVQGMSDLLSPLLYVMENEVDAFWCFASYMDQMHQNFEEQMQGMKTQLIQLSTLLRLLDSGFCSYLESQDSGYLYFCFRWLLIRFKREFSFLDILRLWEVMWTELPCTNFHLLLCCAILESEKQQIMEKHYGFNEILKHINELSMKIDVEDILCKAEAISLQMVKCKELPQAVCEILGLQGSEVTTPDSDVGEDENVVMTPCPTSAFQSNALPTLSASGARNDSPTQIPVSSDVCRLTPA
UniProt P19532: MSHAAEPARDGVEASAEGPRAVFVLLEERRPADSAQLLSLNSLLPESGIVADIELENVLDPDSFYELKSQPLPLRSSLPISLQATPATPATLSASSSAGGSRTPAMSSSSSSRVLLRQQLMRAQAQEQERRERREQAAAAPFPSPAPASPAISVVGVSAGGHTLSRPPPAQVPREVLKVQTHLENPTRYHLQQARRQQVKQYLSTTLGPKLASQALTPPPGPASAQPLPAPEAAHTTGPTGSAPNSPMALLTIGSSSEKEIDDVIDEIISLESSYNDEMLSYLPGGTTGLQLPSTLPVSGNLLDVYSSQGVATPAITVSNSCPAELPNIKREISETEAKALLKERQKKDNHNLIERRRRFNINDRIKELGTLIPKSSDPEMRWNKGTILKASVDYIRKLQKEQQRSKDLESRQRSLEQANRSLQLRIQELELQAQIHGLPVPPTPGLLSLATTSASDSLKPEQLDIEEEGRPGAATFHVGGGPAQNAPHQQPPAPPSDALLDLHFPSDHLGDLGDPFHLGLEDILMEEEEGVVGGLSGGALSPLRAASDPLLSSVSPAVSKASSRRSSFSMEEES

[1] = compound: CCCS(=O)(=O)Nc1ccc(F)c(C(=O)c2c[nH]c3ncc(Cl)cc23)c1F
Summary of the method: as §1

barasertib = compound: CCN(CCCOc1ccc2c(Nc3cc(CC(=O)Nc4cccc(F)c4)[nH]n3)ncnc2c1)CCOP(=O)(O)O [barasertib]
Summary of the method: as §1

[2] = compound: CC[C@@H]1C(=O)N(C)c2cnc(Nc3ccc(C(=O)NC4CCN(C)CC4)cc3OC)nc2N1C1CCCC1
Summary of the method: as §1

volasertib = compound: CC[C@@H]1C(=O)N(C)c2cnc(Nc3ccc(C(=O)N[C@H]4CC[C@H](N5CCN(CC6CC6)CC5)CC4)cc3OC)nc2N1C(C)C [volasertib]
Summary of the method: as §1

[3] = compound: CCn1c(C(=O)N(C2CC2)C2CC2)cc2c3c(ncn3C)c(Nc3cc(C)n(C)n3)nc21
Summary of the method: as §1

[4] = compound: CCn1cc(-c2ccnc3[nH]c(-c4cccc(CN(C)C)c4)cc23)c(-c2ccc(NC(=O)N(C)C)cc2)n1
Summary of the method: as §1

[5] = compound: CN1CCC(CNc2ccc3ncc(-c4cccc(OC(F)(F)F)c4)n3n2)CC1
Summary of the method: as §1

saracatinib = compound: CN1CCN(CCOc2cc(OC3CCOCC3)c3c(Nc4c(Cl)ccc5c4OCO5)ncnc3c2)CC1 [saracatinib]
Summary of the method: as §1

sotrastaurin = compound: CN1CCN(c2nc(C3=C(c4c[nH]c5ccccc45)C(=O)NC3=O)c3ccccc3n2)CC1 [sotrastaurin]
Summary of the method: as §1

alvocidib = compound: CN1CC[C@H](c2c(O)cc(O)c3c(=O)cc(-c4ccccc4Cl)oc23)[C@H](O)C1 [alvocidib]
Summary of the method: as §1

Tubastatin A = compound: CN1CCc2c(c3ccccc3n2Cc2ccc(C(=O)NO)cc2)C1 [Tubastatin A]
Summary of the method: as §1

[6] = compound: CNC(=O)C1=CC=CC=C1NC2=NC(=NC=C2Cl)NC3=C(C=C(C=C3)N4CCOCC4)OC
Summary of the method: as §1

defactinib = compound: CNC(=O)c1ccc(Nc2ncc(C(F)(F)F)c(NCc3nccnc3N(C)S(C)(=O)=O)n2)cc1 [defactinib]
Summary of the method: as §1

[7] = compound: CNc1nc(-c2ccc3c(N)n[nH]c3c2)cc(N2C[C@@H](C(=O)NC3CCCCC3)CC[C@H]2C)n1
Summary of the method: as §1

encorafenib = compound: COC(=O)N[C@@H](C)CNc1nccc(-c2cn(C(C)C)nc2-c2cc(Cl)cc(NS(C)(=O)=O)c2F)n1 [encorafenib]
Summary of the method: as §1

[8] = compound: COC(=O)[C@H](CCSC)NC(=O)C1=C(C=C(C=C1)NC[C@H](CS)N)C2=CC=CC=C2
Summary of the method: as §1

alisertib = compound: COc1cc(Nc2ncc3c(n2)-c2ccc(Cl)cc2C(c2c(F)cccc2OC)=NC3)ccc1C(=O)O [alisertib]
Summary of the method: as §1

[9] = compound: COc1cc2nc(-c3cc(F)ccc3O)nc(N[C@@H]3CNC[C@H]3C(C)(C)O)c2cc1OC
Summary of the method: as §1

gefitinib = compound: COc1cc2ncnc(Nc3ccc(F)c(Cl)c3)c2cc1OCCCN1CCOCC1 [gefitinib]
Summary of the method: as §1

Measured: log2 fold change

TBRG4 (UniProt Q969Z0)
inactive: vemurafenib -0.016 | [1] 0.008 | barasertib 0.051 | [2] -0.075 | volasertib -0.079 | [3] 0.048 | [4] 0.052 | [5] -0.128 | saracatinib 0.026 | sotrastaurin 0.013 | alvocidib 0.017 | Tubastatin A -0.089 | [6] 0.007 | defactinib 0.071 | [7] -0.018 | encorafenib 0.01 | [8] -0.013 | alisertib 0.037 | [9] -0.008 | gefitinib -0.015

TALDO1 (UniProt P37837)
inactive: vemurafenib -0.023 | [1] -0.031 | barasertib -0.019 | [2] -0.06 | volasertib -0.002 | [3] 0.015 | [4] 0.043 | [5] -0.093 | saracatinib -0.005 | sotrastaurin 0.003 | alvocidib 0.032 | Tubastatin A 0.014 | [6] -0.028 | defactinib -0.012 | [7] -0.069 | encorafenib -0.026 | [8] 0.027 | alisertib 0.017 | [9] -0.049 | gefitinib 0.005

TBC1D15 isoform 3 (UniProt Q8TC07)
inactive: vemurafenib -0.026 | [1] 0.007 | barasertib 0.031 | [2] -0.048 | volasertib -0.032 | [3] 0.022 | [4] 0.082 | [5] -0.073 | saracatinib 0.025 | sotrastaurin 0.001 | alvocidib 0.029 | Tubastatin A -0.054 | [6] 0.016 | defactinib 0.002 | [7] -0.004 | encorafenib -0.017 | [8] 0.021 | alisertib 0.009 | [9] -0.005 | gefitinib 0.003

TFE3 (UniProt P19532)
inactive: vemurafenib -0.106 | [1] 0.012 | barasertib -0.037 | [2] 0.005 | volasertib 0.057 | [3] -0.082 | [4] -0.003 | [5] 0.067 | saracatinib 0.04 | sotrastaurin -0.076 | alvocidib 0.031 | Tubastatin A 0.019 | [6] 0.07 | defactinib -0.048 | [7] 0.045 | encorafenib -0.019 | [8] -0.159 | alisertib 0.041 | [9] 0.109 | gefitinib -0.07
